No constants are given. Whether binding was seen depends on the method and setting. In cells and extracts the contact can be indirect. Some binding calls cover weakened binding; strength is not graded here. Where a sequence is shown, tags or fusion partners need not be part of it.
Molecular target: T1, His-tagged translocation-associated membrane protein 2 (TRAM2) (UniProt Q924Z5)
T1 sequence: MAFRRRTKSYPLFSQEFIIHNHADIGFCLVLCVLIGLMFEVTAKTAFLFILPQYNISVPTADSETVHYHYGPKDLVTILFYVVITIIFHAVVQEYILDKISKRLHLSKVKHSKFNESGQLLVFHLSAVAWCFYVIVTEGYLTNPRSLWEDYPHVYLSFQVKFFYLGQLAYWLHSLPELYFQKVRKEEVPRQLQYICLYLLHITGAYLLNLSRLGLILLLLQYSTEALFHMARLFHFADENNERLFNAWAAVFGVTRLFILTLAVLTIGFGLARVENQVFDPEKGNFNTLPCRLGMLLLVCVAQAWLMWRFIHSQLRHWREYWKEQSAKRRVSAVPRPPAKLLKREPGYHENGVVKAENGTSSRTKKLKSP
Assay: co-IP; His antibody precipitates N-terminally His-tagged TRAM2 from transfected BMSCs; blots for endogenous SERCA2b and Col1; cells treated with Ion, TG, FT011 or FT011 plus Lv-Col1

binding: binds
Substance: sarcoplasmic/endoplasmic reticulum calcium ATPase 2b (SERCA2b) (from UniProt O55143-1 1-1044)

Reference: paper PMC8336496
